Holding throughout (test): co-IP; endogenous proteins from MEFs treated with 10 µM etoposide for 2 h then 10 h in DMEM (untreated cells also tested); NP-40 buffer lysate (2 mg) with 10 µg antibody to NM1, p53-K370, PCAF or rabbit IgG overnight at 4 °C; protein A/G magnetic beads; washes in TBST with 0.1 M NaCl; western blot
Test [1] concerns the target PCAF (mouse (endogenous in MEFs)) (UniProt Q9JHD1).
The target in test [2] is p53 (mouse (endogenous in MEFs)) (UniProt P02340).
For test [3], the target named is Nuclear myosin 1 (mouse (endogenous in MEFs)) (UniProt Q9WTI7).

Amino acid sequences for entries named in this document (tags omitted). A change or cut given only in a name is not applied to a line headed by its entry. Chains listed by the source or under a name are the forms on record and can include a tag or linker.
UniProt Q9JHD1: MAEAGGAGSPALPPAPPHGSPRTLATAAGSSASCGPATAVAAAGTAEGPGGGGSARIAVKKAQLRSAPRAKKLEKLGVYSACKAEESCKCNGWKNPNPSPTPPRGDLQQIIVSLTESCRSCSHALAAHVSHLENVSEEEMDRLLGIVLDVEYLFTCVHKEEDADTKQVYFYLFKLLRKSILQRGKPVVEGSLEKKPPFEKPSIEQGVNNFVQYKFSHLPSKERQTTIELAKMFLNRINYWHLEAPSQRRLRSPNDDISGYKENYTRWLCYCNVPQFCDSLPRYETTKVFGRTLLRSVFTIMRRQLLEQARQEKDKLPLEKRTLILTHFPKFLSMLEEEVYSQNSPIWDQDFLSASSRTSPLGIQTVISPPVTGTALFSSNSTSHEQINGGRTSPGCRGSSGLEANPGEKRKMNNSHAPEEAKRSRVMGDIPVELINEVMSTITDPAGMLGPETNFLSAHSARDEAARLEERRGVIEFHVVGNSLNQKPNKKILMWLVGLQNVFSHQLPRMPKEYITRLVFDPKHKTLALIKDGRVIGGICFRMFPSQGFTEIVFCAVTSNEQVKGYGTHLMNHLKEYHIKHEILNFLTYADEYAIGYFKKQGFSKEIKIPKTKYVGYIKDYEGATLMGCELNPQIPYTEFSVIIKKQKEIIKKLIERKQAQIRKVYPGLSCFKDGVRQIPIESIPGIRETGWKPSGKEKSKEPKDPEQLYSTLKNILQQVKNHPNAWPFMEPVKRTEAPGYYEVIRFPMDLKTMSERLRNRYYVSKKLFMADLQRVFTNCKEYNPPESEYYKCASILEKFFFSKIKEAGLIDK
UniProt P02340: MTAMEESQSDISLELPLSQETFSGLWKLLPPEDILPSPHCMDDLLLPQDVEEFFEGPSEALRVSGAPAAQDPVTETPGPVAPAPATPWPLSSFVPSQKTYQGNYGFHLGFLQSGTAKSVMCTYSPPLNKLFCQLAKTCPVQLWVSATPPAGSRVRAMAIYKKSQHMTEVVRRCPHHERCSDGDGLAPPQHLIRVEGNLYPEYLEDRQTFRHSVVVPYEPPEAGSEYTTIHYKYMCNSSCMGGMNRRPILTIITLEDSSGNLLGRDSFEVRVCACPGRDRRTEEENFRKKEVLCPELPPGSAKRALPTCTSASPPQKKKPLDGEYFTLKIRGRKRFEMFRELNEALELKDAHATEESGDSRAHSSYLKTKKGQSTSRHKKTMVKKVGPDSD
Nuclear myosin 1 (mouse (endogenous in MEFs)) (Q9WTI7-3, form named): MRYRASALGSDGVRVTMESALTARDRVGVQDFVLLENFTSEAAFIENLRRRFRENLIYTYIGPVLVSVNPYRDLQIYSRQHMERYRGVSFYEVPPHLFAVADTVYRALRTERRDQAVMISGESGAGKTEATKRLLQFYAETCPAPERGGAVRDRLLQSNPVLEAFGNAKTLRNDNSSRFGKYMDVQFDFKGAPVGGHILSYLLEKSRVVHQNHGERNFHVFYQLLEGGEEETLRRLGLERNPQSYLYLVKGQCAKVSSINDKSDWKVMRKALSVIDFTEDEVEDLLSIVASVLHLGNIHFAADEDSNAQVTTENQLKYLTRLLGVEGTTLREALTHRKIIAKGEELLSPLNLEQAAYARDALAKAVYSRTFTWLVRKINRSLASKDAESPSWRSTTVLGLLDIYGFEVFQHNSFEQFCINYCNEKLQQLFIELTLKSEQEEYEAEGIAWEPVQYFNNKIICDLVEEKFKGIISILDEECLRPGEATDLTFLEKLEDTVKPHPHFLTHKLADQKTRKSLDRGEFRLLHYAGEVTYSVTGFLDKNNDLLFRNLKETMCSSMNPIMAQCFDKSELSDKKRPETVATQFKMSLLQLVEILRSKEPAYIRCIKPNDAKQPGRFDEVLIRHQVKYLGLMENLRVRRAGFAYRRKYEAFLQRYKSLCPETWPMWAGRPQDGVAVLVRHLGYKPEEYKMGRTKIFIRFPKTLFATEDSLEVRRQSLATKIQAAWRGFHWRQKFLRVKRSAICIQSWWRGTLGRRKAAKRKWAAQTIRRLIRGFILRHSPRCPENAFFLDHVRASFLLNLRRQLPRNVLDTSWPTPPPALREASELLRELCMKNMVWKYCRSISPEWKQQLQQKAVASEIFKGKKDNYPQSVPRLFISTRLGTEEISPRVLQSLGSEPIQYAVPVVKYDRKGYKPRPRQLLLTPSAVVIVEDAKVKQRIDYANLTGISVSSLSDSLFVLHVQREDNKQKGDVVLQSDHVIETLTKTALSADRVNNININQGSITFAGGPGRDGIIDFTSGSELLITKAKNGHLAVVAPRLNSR

Results are given in words; binding and its absence hold for the method and conditions named. In cells and extracts the contact can be indirect. Some entries that bind do so weakly or less than the wild type.

As for “Nuclear myosin 1 (from UniProt Q9WTI7-3 1-1044)”, the binding result in test [1] and in test [2] was “binds” in each case.
Consider p53 (from UniProt P02340 1-390), for which the binding result in test [1] and in test [3] was “binds” in each case.

These data come from PMC7066169.
